In PubChem BioAssay AID595 (National Center for Advancing Translational Sciences (NCATS), 2007):
Hit rate of the full screen: of about 71,000 compounds, about 310 (0.44%) were called active. The inconclusive results got no clear call from the source; some entries with a clear call stand among them for comparison. Calls follow the shape of the dose curve; as a rule, active = well fitted curve in either direction with a large enough effect; inconclusive = small, poorly fitted or top-dose-only effect, or another doubt; inactive = flat fitted curve, though single readings scatter. Potencies of inconclusive entries are doubtful fits and often do not repeat.

Tested on: Hsp90 C-terminal peptide / TPR2A (Hop) interaction, human
Assay: qHTS Assay for Disrupters of an Hsp90 Co-Chaperone Interaction
Conditions: AlphaScreen TPR2A-His6 binding biotin-Hsp90 C-terminal peptide; activity change, negative = inhibition: at 57 µM (top of the series) unless noted
% is scaled to controls: 0 for no effect and ±100 for the full control effect; potency is read from the fitted curve at half-maximal effect.

Row | Compound | activity change, negative = inhibition | Potency
1 | CCOCCCNC(=O)c1cc2c(=O)n3cccc(C)c3nc2n1C | inactive | –
2 | c1coc(C2Nc3cccc4cccc(c34)N2)c1 | inactive | –
3 | CCNc1nc(N)c(C(=O)c2ccc(Cl)s2)s1 | inactive | –
4 | CCCS(=O)(=O)NCCc1cc2c(OC)ccc(OC)c2[nH]c1=O | inconclusive: 37.6% | –
5 | CCOC(OCC)P(=O)(O)CCCNCc1ccc(Cl)c(Cl)c1 | inactive | –
6 | COC(=O)c1[nH]c2ccc(F)cc2c1NC(=O)CCN1CCN(C(=O)c2ccco2)CC1 | inconclusive: 47.9% | –
7 | CSc1ncc(Cl)c(C(=O)NCc2ccc3c(c2)OCO3)n1 | inconclusive: 50.5% | –
8 | O=C(NCCOC(=O)C1COc2ccccc2O1)C1COc2ccccc2O1 (centres undefined) | inconclusive: 61.5% [at 11 µM] | –
9 | Cn1c(C(C#N)C2=C(Cl)C(=O)N(c3ccccc3)C2=O)nc2ccccc21 (centres undefined) | – | inconclusive: 25.1 µM [inhibitor, partial curve]
10 | COc1cccc(C2N(c3cccc(Cl)c3)C(=O)C3CCCN32)c1OC (centres undefined) | inconclusive: 48.2% | –
11 | COc1ccc2[nH]cc(CCNc3ccnc(-c4ccc5c(c4)OCO5)n3)c2c1 | – | inconclusive: 31.6 µM [inhibitor, single point]
12 | Cc1nnc2sc(-c3ccc(NC(=O)c4ccc(-c5ccc(Cl)cc5Cl)o4)cc3)nn12 | – | inconclusive: 5.01 µM [inhibitor]
13 | CCn1nc(-c2ccccc2)c2nc3ccccc3nc21 | – | inconclusive: 25.1 µM [activator, partial curve]
14 | CCCCCCCC/C=C\CCCCCCCC(=O)NCCc1ccc(O)c(O)c1 | – | inconclusive: 25.1 µM [inhibitor, partial curve]
15 | CCOc1ccc(-c2cn(S(=O)(=O)c3cccc4nsnc34)nc2N)cc1 | – | inconclusive: 25.1 µM [inhibitor, single point]
16 | COc1ccc(-c2nc3ccccc3s2)cc1O | inactive | –
17 | O=C(Nc1cccnc1)c1ccc2snnc2c1 | inconclusive: 40.4% | –
18 | Fc1ccccc1N1CCN(Cc2nc(-c3ccc(Cl)cc3Cl)no2)CC1 | – | inconclusive: 39.8 µM [activator, single point]
19 | O=C1C(c2ccccn2)=[N+]([O-])c2ccccc21 | – | inconclusive: 31.6 µM [inhibitor, partial curve]
20 | Cc1nc2cnc(N3CCN(C)CC3)nc2n(C2CC2)c1=O | inconclusive: 91.3% | –
21 | C/C(Cl)=C/CCl | inactive | –

Row | Compound | activity change, negative = inhibition | Potency
22 | O=C(NCc1ccco1)C1CCCN(S(=O)(=O)c2cccc3cccnc23)C1 (centres undefined) | inconclusive: 45.3% | –
23 | CCSc1nnc(NC(=O)c2ccccn2)s1 | – | active: 7.94 µM
24 | COC(=O)c1c(-c2cc(OC)c(OC)c(OC)c2)c2ccnc(OCc3ncccn3)c2c(=O)n1Cc1ccnc(C)c1 | inactive | –
25 | Cc1cc(C)n(-c2nc(NCc3cccnc3)c3c4c(sc3n2)COC(C)(C)C4)n1 | – | inconclusive: 31.6 µM [inhibitor, single point]
26 | Cc1ccc(-c2noc(-c3ccccc3C(=O)N3CCCC3)n2)cc1 | inactive | –
27 | CCOC(=O)CCc1c(C)c2ccc(OCC(=O)N(CC)CC)c(C)c2oc1=O | inconclusive: 41% | –
28 | O=C(c1cccs1)N1CCn2c1nc1ccccc12 | inactive | –
29 | Cc1cccc2sc(NC(=O)Cn3cccc3)nc12 | inactive | –
30 | CCC(C)NC(=O)C1c2ccccc2C(=O)N1Cc1ccccc1OC (centres undefined) | inactive | –
31 | O=C(CCNS(=O)(=O)c1ccc2c(c1)CCC(=O)N2)Nc1ccc2c(c1)OCCO2 | inconclusive: 52.5% | –
32 | CCOc1cc2c3c(c1)C1(OCCO1)C(=O)N3C(C)(C)CC2C (centres undefined) | inconclusive: 41.8% | –
33 | CCOc1cc(N2CCOCC2)c(OCC)cc1NC(=O)Cc1cn2ccsc2n1 | inconclusive: 31.5% | –
34 | CCOc1ccccc1-c1nc(-c2ccc(C)nc2OC)no1 | – | inconclusive: 31.6 µM [activator, single point]
35 | Fc1ccc(-n2c(Cc3ccccc3)nnc2SCc2nc(-c3cccs3)no2)cc1 | inactive | –
36 | N[C@@H](CO)C(=O)NNCc1ccc(O)c(O)c1O | – | inconclusive: 25.1 µM [inhibitor, partial curve]
37 | CCOc1ccccc1NC(=O)Cn1c(C)cc(COC)c(C#N)c1=O | inactive | –
38 | COc1ccc(NC2=Nc3ccccc3CC2)cc1 | inactive | –
39 | Cc1ccc2c(c1)c1ncnc(N3CCC4(CC3)OCCO4)c1n2C | inconclusive: 60.2% | –
40 | CCOC(=O)C1=C(C)Nc2ncnn2C1c1c[nH]c2ccccc12 (centres undefined) | inconclusive: 39.8% | –
41 | COC(=O)N1CCC2(CCCN(c3ccncc3)C2)CC1 | inconclusive: 56% | –
42 | Cc1nnc(SCC(=O)c2c(N)n(C)c(=O)n(C)c2=O)[nH]c1=O | inactive | –

Part of the list above, in markdown:

| Row | Compound | activity change, negative = inhibition | Potency |
| --- | --- | --- | --- |
| 20 | Cc1nc2cnc(N3CCN(C)CC3)nc2n(C2CC2)c1=O | inconclusive: 91.3% | – |
| 21 | C/C(Cl)=C/CCl | inactive | – |

(further entries)

Row | Compound | activity change, negative = inhibition | Potency
43 | CCc1ccc(C(c2ccc(CC)cc2)C(Cl)Cl)cc1 | – | inconclusive: 25.1 µM [activator, partial curve]
44 | Cc1cc(N2CCCC2)ccc1/C=N/n1cnnc1 | inactive: -8.33% [at 11 µM] | –
45 | Cc1cccc(Nc2nc(N)nc(CN3CCN(c4ccccc4)CC3)n2)c1 | – | inconclusive: 31.6 µM [inhibitor, partial curve]
46 | CC(C)Cn1c(-c2ccc(Cl)cc2)cnc1SCC(=O)N1CCOCC1 | inconclusive: 34.6% | –
47 | Cc1ccc2nc(-c3cccc(NC(=O)c4ccco4)c3)[nH]c2c1 | inactive | –
48 | c1ccc(-c2cccc(N3CCCC4(CCNCC4)C3)c2)cc1 | inactive | –
49 | O=C(Nc1ccon1)c1ccc2c(c1)OCO2 | inactive | –
50 | Cc1cc(C)nc(SC(C)C(=O)Nc2ccc(S(N)(=O)=O)cc2)n1 (centres undefined) | inactive | –
51 | CCCSc1nc2c(cnn2-c2ccccc2)c(=O)[nH]1 | inactive | –
52 | COC(=O)Cn1c(C(=O)N2CCCC2)cc2c1C[C@H]1CN(C(=O)c3ccccc3)[C@@](Cc3ccc(F)cc3)(C(=O)OC)[C@@H]21 | inconclusive: 57.8% | –
53 | CC(C)CCNC(=O)C1CCN(S(=O)(=O)c2ccc3c(c2)CCC(=O)N3)CC1 | inactive | –
54 | O=C(Nc1ccc(F)cc1)c1cccc2c1C(=O)N(Cc1ccccn1)C2 | inconclusive: 52% | –
55 | Cc1ccc(-c2cc(-c3ccccc3)c(C#N)c(N)n2)o1 | – | inconclusive: 25.1 µM [inhibitor, single point]
56 | COc1ccc(OCC(O)Cn2c(=N)n(CCN3CCCCC3)c3ccccc32)cc1 (centres undefined) | inconclusive: 25.9% | –
57 | O=[N+]([O-])c1ccc2c(N=Nc3ccc4ccccc4c3O)c(O)cc(S(=O)(=O)O)c2c1 | – | inconclusive: 3.16 µM [inhibitor, partial curve]
58 | CCOc1ccccc1C(=O)N1CCC(n2nnc3cc(C)ccc32)CC1 | inconclusive: 37.1% | –
59 | S=C(S)O[C@@H]1C[C@@H]2C[C@H]1[C@@H]1CCC[C@H]21 | inactive | –
60 | COC(=O)c1sc(NC(=O)c2ccc(OC)cc2OC)nc1C | inconclusive: 53% | –
61 | CN(c1ccc(C(=O)NCc2cccnc2)cc1)S(C)(=O)=O | inconclusive: 43.1% | –
62 | CC(=O)N[C@H](CS)C(=O)O | inconclusive: 65.7% | –
63 | Cc1ccc(-c2nnc(SCc3ccccc3F)o2)cc1 | – | inconclusive: 31.6 µM [activator, single point]

In the list so far, 7 contain an NH in an aromatic ring.
Row | Compound | activity change, negative = inhibition | Potency
4 | CCCS(=O)(=O)NCCc1cc2c(OC)ccc(OC)c2[nH]c1=O | inconclusive: 37.6% | –
6 | COC(=O)c1[nH]c2ccc(F)cc2c1NC(=O)CCN1CCN(C(=O)c2ccco2)CC1 | inconclusive: 47.9% | –
11 | COc1ccc2[nH]cc(CCNc3ccnc(-c4ccc5c(c4)OCO5)n3)c2c1 | – | inconclusive: 31.6 µM [inhibitor, single point]
40 | CCOC(=O)C1=C(C)Nc2ncnn2C1c1c[nH]c2ccccc12 (centres undefined) | inconclusive: 39.8% | –
42 | Cc1nnc(SCC(=O)c2c(N)n(C)c(=O)n(C)c2=O)[nH]c1=O | inactive | –
47 | Cc1ccc2nc(-c3cccc(NC(=O)c4ccco4)c3)[nH]c2c1 | inactive | –
51 | CCCSc1nc2c(cnn2-c2ccccc2)c(=O)[nH]1 | inactive | –

Later entries

Row | Compound | activity change, negative = inhibition | Potency
64 | O=C(NCc1ccccn1)Nc1ccc(F)cc1 | inconclusive: 40.4% | –
65 | CCN(CC)CC[n+]1ccc2c(C)c3[nH]c4ccc(O)cc4c3c(C)c2c1 | inconclusive: 65% [at 11 µM] | –
66 | COc1ccc(N(CC(=O)NC2CCCC2)C(=O)Cn2nnc(-c3ccc(C)cc3)n2)cc1 | inconclusive: 79.3% | –
67 | CCOc1ccc(OCCSc2nnnn2C2CCCCC2)cc1 | – | inconclusive: 31.6 µM [activator, single point]
68 | CCOC(=O)c1c(NC(=O)CSc2nnnn2-c2ccc3c(c2)OCO3)sc(C)c1C | inconclusive: 69.5% | –
69 | CC1CN(CC(O)COc2ccc(C(=O)c3ccccc3)cc2)CC(C)O1 (centres undefined) | inconclusive: 34.5% | –
70 | O=C1CC(C(=O)NCc2ccccc2)N=C(N2CCCCC2)N1 (centres undefined) | inconclusive: 46.4% | –
71 | CCCOC(=O)c1ccc(Oc2c(-c3ccc(O)cc3O)n[nH]c2C)cc1 | inactive | –
72 | COc1ccc2[nH]cc(CCNc3ncncc3-c3ccc(N(C)C)cc3)c2c1 | – | inconclusive: 25.1 µM [inhibitor, partial curve]
73 | Oc1c([C@H](Nc2ccccn2)c2ccccc2)ccc2cccnc12 | – | inconclusive: 3.98 µM [inhibitor, single point]
74 | CCC(c1nnc(SCC(=O)Nc2nnc(-c3ccccc3)o2)o1)N(C)C (centres undefined) | – | inconclusive: 31.6 µM [inhibitor, single point]
75 | CC(=O)c1cn(CC(=O)NCc2ccc3c(c2)OCO3)c2ccccc12 | inconclusive: 42.1% | –
76 | CCNc1ncc2nc(-c3cccc(C#N)c3)c(=O)n(CCC#N)c2n1 | inactive | –
77 | CCn1c(SCC(=O)NCCc2ccc(OC)c(OC)c2)nc2c1c(=O)n(C)c(=O)n2C | inconclusive: 87.9% | –
78 | CCS(=O)(=O)N1CCN(c2cccc(C)c2C)CC1 | inconclusive: 60.4% [at 11 µM] | –
79 | CCn1c(SCC(=O)Nc2cc(C)on2)nc2sc3c(c2c1=O)CCCC3 | inconclusive: 18.3% | –
80 | CCOCC(=O)Nc1c(C(=O)Nc2ccc(OC)cc2OC)oc2ccccc12 | inconclusive: 51.2% | –
81 | Cc1cnc(CNc2nc(-c3ccccc3C)nc3ccccc23)cn1 | inactive | –
82 | COc1cc2cc3c4c(cc(OC)c(OC)c4c2cc1OC)CCN3C | – | inconclusive: 31.6 µM [inhibitor, partial curve]
83 | Cc1ccc(S(=O)(=O)N(C)Cc2nc(-c3ccc(Br)cc3)no2)cc1 | – | inconclusive: 25.1 µM [activator, single point]
84 | CN(C)c1ccc(N=Cc2ccco2)cc1 | – | inconclusive: 31.6 µM [inhibitor, single point]
